Data from patent US20120283189A1.
Results are given in words; binding and its absence hold for the method and conditions named. In cells and extracts the contact can be indirect. A result given as binding can be weak or reduced; the word gives no strength.

Columns and labels:
[1] = target: β1 Na+-K+ pump subunit of rabbit cardiac myocytes (rabbit); test: co-immunoprecipitation, β1 immunoblot of FXYD1 immunoprecipitate
[2] = target: β1 Na+-K+ pump subunit of rabbit cardiac myocytes (rabbit); test: co-immunoprecipitation from rabbit myocytes, with and without Ang II

B1: native FXYD1 of rabbit cardiac myocytes (protein, UniProt G1TZA0 21-92, looked up)
chain: EAPQEQDPFTYDYQSLRIGGLIIAGILFILGILIILKRGAWERFDTARRTGEPDEEEGTFRSSIRRLSTRRR
For B1, the binding [1] was “binds” and the binding [2] was “binds”.
